This test deals with ALλ amyloid deposits composed of λ2 fragments (λ2 protein, SEQ ID NO: 86). Description: Immunohistochemistry, 3 µg/mL mAb on formalin-fixed sections.

Results are given in words; binding and its absence hold for the method and conditions named. Some binding calls cover weakened binding; strength is not graded here.

B1: murine monoclonal antibody 7D8 (ATCC Accession Number PTA-9468) (antibody, mouse IgG2b, V domains shown)
VH: EVQLVESGGRLVQPKGSLKLSCAASGFTFNTYAMYWIRQAPGKGLEWVARIRSKSNNYAIYYADSVKDRFTIFRDDSQSMLYLQMNNLKTEDTAMYYCVRPYSDSFAYWGQGTLVTVSA
VL: DVVMTQTPLSLPVSLGDQASISCRSSLSLVHSTGNTYLHWYLQKPGQSPKLLIYKVSNRFSGVPDRFSGSGSGTYFTLKISRVEAEDLGVYFCSQSTHVPFTFGGGTKLEIK
B1: the binding result is listed as “binds”.

B2: murine monoclonal antibody 8G9 (antibody, mouse IgG2b, V domains shown)
VH: EVQLVESGGRLVQPKGSLKLSCAASGFTFNTYAMYWIRQAPGKGLEWVARIRSKSNNYAIYYADSVKDRFTIFRDDSQSMLYLQMNNLKTEDTAMYYCVRPYSDSFAYWGQGTLVTVSA
VL: DVVMTQTPLSLPVSLGDQASISCRSSQSLVHSTGNTYLHWYLQKPGQSPKLLIYKVSNRFSGVPDRFSGSGSGTYFTLKISRVEAEDLGVYFCSQSTHVPFTFGGGTKLEIK
In the case of B2, the binding result is recorded as “binds”.

B3: murine monoclonal antibody 2A4 (ATCC Accession Number PTA-9662) (antibody, V domains shown)
VH: EVQLVESGGRLVQPKGSLKLSCAASGFTFNTYAMYWIRQAPGKGLEWVARIRSKSNNYAIYYADSVKDRFTIFRDDSQSMLYLQMNNLKTEDTAMYYCVRPYSDSFAYWGQGTLVTVSA
VL: DVVMTQTPLSLPVSLGDQASISCRSSQSLVHSTGNTYLHWYLQKPGQSPKLLIYKVSNRFSGVPDRFSGSGSGTYFTLKISRVEAEDLGVYFCSQSTHVPFTFGGGTKLEIK
B3: the binding entry was “binds”.

(Values after US20120039878A1.)
